doi:10.1101/2025.07.24.666583
These are yes or no findings as the source states them, for the method shown. In cells and extracts the contact can be indirect. Some results given as binding are weak or reduced against the parent protein; the word gives no strength. Each block holds one substance with its values, some of them ahead of it.

Chains of the proteins cited; added tags and fusions are not shown.
UniProt Q8N3C0: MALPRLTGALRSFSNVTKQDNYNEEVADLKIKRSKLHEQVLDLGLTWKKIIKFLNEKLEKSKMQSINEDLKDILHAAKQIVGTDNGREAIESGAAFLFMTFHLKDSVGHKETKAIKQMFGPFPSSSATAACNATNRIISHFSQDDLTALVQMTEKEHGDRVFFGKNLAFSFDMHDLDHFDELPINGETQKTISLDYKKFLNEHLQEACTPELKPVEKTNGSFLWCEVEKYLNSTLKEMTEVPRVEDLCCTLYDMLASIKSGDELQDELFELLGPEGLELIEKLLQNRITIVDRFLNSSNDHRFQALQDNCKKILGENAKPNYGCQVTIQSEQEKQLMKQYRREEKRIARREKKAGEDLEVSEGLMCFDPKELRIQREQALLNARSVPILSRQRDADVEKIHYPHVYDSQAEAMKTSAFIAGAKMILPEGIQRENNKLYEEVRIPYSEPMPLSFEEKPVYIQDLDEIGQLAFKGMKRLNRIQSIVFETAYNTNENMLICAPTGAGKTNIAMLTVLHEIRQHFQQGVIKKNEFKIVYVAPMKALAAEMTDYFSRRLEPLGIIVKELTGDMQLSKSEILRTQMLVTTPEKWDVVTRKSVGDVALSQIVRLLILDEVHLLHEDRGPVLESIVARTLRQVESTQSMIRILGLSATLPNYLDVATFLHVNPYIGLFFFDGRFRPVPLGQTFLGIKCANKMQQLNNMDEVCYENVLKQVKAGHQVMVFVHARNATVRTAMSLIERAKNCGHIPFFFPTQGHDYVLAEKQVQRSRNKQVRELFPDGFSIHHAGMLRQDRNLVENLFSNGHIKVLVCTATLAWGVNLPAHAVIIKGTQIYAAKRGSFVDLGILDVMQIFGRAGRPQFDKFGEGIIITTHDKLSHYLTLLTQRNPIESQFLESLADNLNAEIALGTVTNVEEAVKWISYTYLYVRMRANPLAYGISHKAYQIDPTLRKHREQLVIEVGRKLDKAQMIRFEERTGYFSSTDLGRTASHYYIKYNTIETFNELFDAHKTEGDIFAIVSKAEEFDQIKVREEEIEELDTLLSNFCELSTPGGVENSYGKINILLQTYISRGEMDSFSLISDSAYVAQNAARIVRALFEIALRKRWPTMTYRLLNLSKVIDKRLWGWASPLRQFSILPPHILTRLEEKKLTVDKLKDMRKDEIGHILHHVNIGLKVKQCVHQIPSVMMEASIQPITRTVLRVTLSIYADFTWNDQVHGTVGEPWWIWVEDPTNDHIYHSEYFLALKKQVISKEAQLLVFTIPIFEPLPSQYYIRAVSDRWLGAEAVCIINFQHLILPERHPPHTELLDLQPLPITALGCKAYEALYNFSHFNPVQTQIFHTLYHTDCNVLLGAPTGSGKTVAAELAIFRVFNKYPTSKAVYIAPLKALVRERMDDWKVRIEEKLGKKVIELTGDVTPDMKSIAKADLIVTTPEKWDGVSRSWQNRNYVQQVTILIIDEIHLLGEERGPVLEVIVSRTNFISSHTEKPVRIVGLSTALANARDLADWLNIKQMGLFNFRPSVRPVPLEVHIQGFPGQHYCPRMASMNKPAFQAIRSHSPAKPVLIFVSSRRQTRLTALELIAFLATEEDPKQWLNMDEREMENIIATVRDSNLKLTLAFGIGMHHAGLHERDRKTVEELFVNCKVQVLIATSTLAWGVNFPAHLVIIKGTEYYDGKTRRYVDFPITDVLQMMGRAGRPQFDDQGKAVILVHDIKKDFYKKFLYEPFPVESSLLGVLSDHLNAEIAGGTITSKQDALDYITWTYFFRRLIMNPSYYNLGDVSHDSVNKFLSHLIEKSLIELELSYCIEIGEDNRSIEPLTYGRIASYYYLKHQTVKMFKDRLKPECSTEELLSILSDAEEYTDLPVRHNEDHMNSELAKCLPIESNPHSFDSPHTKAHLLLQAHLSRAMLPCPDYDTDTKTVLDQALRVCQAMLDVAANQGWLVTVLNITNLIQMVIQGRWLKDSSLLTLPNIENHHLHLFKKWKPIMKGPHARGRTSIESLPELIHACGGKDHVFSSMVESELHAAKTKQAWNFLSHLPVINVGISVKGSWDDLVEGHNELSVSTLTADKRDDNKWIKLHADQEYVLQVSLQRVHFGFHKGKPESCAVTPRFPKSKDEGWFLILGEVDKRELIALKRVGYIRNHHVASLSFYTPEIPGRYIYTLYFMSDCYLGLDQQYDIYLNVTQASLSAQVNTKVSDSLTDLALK
UniProt P27694: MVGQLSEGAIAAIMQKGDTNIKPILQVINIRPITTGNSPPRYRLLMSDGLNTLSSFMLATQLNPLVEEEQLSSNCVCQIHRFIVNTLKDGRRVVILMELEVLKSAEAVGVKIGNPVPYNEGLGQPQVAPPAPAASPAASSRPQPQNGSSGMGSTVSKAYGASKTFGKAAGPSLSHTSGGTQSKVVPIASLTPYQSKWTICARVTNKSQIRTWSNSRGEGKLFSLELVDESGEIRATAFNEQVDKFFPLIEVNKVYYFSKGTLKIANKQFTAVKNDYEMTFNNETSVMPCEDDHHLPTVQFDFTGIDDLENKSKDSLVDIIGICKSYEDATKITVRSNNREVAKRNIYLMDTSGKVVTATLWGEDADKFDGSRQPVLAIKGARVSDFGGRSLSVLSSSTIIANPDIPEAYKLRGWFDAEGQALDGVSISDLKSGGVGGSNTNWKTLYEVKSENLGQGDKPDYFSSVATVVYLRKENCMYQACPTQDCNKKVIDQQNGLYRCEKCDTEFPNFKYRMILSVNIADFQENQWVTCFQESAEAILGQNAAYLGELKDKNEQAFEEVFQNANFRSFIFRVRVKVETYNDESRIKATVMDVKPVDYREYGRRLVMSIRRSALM
UniProt P15927: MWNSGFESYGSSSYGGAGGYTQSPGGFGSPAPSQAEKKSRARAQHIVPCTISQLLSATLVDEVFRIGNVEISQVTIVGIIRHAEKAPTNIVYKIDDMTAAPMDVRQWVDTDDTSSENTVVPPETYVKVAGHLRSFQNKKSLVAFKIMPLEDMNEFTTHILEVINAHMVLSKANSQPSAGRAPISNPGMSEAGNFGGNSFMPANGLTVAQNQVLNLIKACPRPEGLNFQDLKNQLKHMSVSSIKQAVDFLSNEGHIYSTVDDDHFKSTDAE

How the values were obtained:
[1] = biological target: Myc-ASCC3 (human) (UniProt Q8N3C0); assay: co-IP; anti-Myc IP from HEK293T co-transfected with epitope-tagged RPA32/RPA70 and epitope-tagged full length ASCC3 (DNA 1:3); vector alone as control
[2] = biological target: T1, endogenous ASCC2 (HCT116) (human (endogenous in HCT116)) (UniProt Q9H1I8); assay: co-IP; endogenous proteins, HCT116 lysate in NETN buffer; IP with anti-ASCC2 or anti-ASCC3 antibody and protein G beads, washes in NETN with 300 mM NaCl; IgG as control
T1 sequence: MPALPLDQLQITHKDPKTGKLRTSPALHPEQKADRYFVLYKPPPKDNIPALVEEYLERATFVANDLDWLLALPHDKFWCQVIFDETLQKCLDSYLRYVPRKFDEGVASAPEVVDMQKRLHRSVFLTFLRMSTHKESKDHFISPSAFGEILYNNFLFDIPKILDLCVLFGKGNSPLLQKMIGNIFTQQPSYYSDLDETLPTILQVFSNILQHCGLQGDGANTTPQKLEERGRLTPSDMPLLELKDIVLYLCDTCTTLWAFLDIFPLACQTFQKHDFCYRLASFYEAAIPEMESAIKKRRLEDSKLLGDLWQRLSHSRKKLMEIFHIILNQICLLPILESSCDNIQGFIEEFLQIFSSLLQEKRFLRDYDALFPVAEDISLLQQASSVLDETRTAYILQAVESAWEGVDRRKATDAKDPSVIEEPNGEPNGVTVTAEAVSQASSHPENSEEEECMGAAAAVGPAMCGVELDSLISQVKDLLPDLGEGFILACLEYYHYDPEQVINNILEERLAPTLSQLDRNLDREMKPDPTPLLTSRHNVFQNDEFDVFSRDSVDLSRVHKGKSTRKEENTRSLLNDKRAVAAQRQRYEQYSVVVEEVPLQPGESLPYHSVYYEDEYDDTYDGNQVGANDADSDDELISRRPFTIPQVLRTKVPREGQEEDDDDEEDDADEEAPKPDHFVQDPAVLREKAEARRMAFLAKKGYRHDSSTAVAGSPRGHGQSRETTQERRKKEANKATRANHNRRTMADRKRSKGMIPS

[3] = biological target: endogenous ASCC3 (HCT116) (human (endogenous in HCT116)) (UniProt Q8N3C0); assay: as above
[4] = biological target: HA-RPA70 (UniProt P27694); assay: co-IP; anti-HA IP from HEK293T expressing vector or HA-RPA70, endogenous ASCC2/ASCC3 blotted; with or without 4 mM HU for 4 h; with or without DNase I (50 units) in the lysate
[5] = biological target: Myc-RPA70 (UniProt P27694); assay: co-IP; anti-Myc IP from HEK293T co-transfected with epitope-tagged RPA32/RPA70 and epitope-tagged full length ASCC3 (DNA 1:3); vector alone as control

- binding [1]: binds
Substance: HA-RPA70 (from UniProt P27694 1-616)

- binding [2]: binds
- binding [3]: binds
Substance: endogenous RPA70 (HCT116) (from UniProt P27694 1-616)

- binding [2]: binds
Substance: endogenous RPA32 (HCT116) (from UniProt P15927 1-270)

- binding [4]: binds
Substance: endogenous ASCC3 (HEK293T) (from UniProt Q8N3C0 1-2202)

- binding [5]: binds
Substance: eGFP-ASCC3 (from UniProt Q8N3C0 1-2202)
